The text below walks through data of PubChem BioAssay AID624405 (Broad Institute, 2012).

In all, about 1,900 compounds went through this assay and about 250 (13%) were called active. Roughly 4% stayed inconclusive and do not appear here.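 How the source made its calls: active means fitted curve reaches 40% rescue activity at or below the top valid dose, in every test run; inconclusive means test runs disagree, some active and some inactive; inactive means every run misses the threshold or moves the wrong way.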 The list shows a part of the results, in another mix than the full data. Potency and affinity values are given separately.

This assay can be described thus: rescue of simvastatin-induced ATP loss – cell-based, C2C12 myotubes, ATP luminescence, cherry pick, dose response (AID 624405).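 Further: myotubes are challenged with simvastatin at 10 µM to lower ATP.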 The following applies: 48 h, scaled: DMSO wells 0, geranylgeraniol wells 100; at 19.5 µM (top of the series) unless noted.
Regarding `Cc1ccc2nc(SCC(=O)N(CC(C)C)c3c(N)n(CC(C)C)c(=O)[nH]c3=O)[nH]c2c1`, the rescue activity (ATP increase) is inactive: 8.11%.

Consider `COc1ccc(C=O)cc1CSc1nnc(COc2cccc3cccnc23)o1`, for which the rescue activity (ATP increase) was inactive: 6.76%.

On to `CCCC(=O)NC(=S)Nc1cccc(C(C)=O)c1`, for which the rescue activity (ATP increase) is inactive: -8.31%.

As to `Cc1ccc(S(=O)(=O)Nc2ccc3c(c2)C(=O)N([C@@H](C)CO)C[C@@H](C)[C@@H](CN(C)Cc2ccc(Cl)c(Cl)c2)O3)cc1`, the rescue activity (ATP increase) is inactive: 11.3%.

Turning to `N#CC1CN(C(c2ccccc2)c2ccccc2)C1`, the rescue activity (ATP increase) was inactive: 10.8%.

Take `CCOc1cc(CNCc2ccncc2)cc(Br)c1OCc1ccccc1F`: the rescue activity (ATP increase) is inactive: -28%.

Consider `O=C(NC1Cc2ccccc2C1)[C@H]1[C@H](CO)[C@H]2Cn3c(cccc3=O)[C@H]2N1C(=O)c1cnccn1`, for which the rescue activity (ATP increase) is inactive: -1.75%.

With `CC(=O)CSc1nc(C(F)(F)F)cc(=O)n1-c1ccccc1`, the rescue activity (ATP increase) is inactive: 19%.

For `CC1(C)Cc2cccc(OCC(N)=O)c2O1`, the rescue activity (ATP increase) is inactive: 37.2%.

As to `CCOC(=O)c1sc(Nc2nc3c(OC)cccc3s2)nc1C`, the rescue activity (ATP increase) is inactive: 7.42%.

`COc1ccc(S(=O)(=O)Nc2ccc3c(c2)C(=O)N([C@H](C)CO)C[C@@H](C)[C@H](CN(C)S(=O)(=O)c2cccs2)OCCCC[C@H](C)O3)cc1`: the rescue activity (ATP increase) is inactive: -3.23%.

Consider `Cc1ccc(CNC(=O)Cn2cccc2C(=O)c2ccccc2)cc1`, for which the rescue activity (ATP increase) is inactive: 20.5%.

As for `O=C(O)COc1ccc2c3c(c(=O)oc2c1)CCC3`, the rescue activity (ATP increase) was inactive: 0.208%.

In the case of `COc1ccc(C#Cc2cnc3c(c2)C(=O)N([C@H](C)CO)C[C@H](C)[C@@H](CN(C)C(=O)Nc2cccc(OC)c2)O3)cc1`, the rescue activity (ATP increase) was inactive: 32.5%.

Take `C[C@H]1CN([C@@H](C)CO)C(=O)c2cc(NC(=O)Nc3ccc(C(F)(F)F)cc3)ccc2O[C@H]1CN(C)Cc1ccc(C(=O)Nc2ccccc2N)cc1`: the rescue activity (ATP increase) was inactive: 44.6% [at 18 µM].

Consider `C/C(=N/NC(=O)c1cc(Cl)ccc1O)C12CC3CC(CC(C3)C1)C2`, for which the rescue activity (ATP increase) is inactive: -41.6%.

For `O=C(Nc1ccccc1Cl)NC1(C(=O)N2CCCCC2)CCCCC1`, the rescue activity (ATP increase) was inactive: 17%.

For `CCN1CCN(c2ccc(NC(=O)Cc3ccccc3)cc2)CC1`, the rescue activity (ATP increase) is inactive: -4.12%.

With `CCOC(=O)CN(C(=O)CSc1nnc2c(n1)[nH]c1ccc(F)cc12)c1ccccc1`, the rescue activity (ATP increase) was inactive: -6.28%.

As for `C[C@H](CO)N1C[C@H](C)[C@H](CN(C)S(=O)(=O)c2ccc(Cl)cc2)OCCCC[C@H](C)Oc2ccc(NS(C)(=O)=O)cc2C1=O`, the rescue activity (ATP increase) was inactive: 5.39%.

On to `C[C@H]1CN([C@@H](C)CO)S(=O)(=O)c2ccc(C#CC3CCCCC3)cc2O[C@H]1CN(C)C(=O)Cc1ccncc1`, for which the rescue activity (ATP increase) is inactive: -18.7%.

Regarding `CC(C)COc1nc2ccccc2c(=O)n1OCC(=O)O`, the rescue activity (ATP increase) was inactive: -5.81%.

Turning to `Cc1ccc(S(=O)(=O)N(C)C[C@@H]2Oc3ncc(C#Cc4cccc(F)c4)cc3C(=O)N([C@H](C)CO)C[C@@H]2C)cc1`, the rescue activity (ATP increase) was inactive: 25.8%.

As for `COc1ccc(NC(=O)Nc2cccc3c2O[C@@H](CN(C)C(=O)Nc2cccc4ccccc24)[C@@H](C)CN([C@H](C)CO)C3=O)cc1`, the rescue activity (ATP increase) was inactive: 4.56%.

On to `CCOC(=O)C1=C(N)c2ccccc2CC1C(C)C` (stereo not given), for which the rescue activity (ATP increase) is inactive: 21.5%.

`N#Cc1ccc(C(=O)NCC(c2ccco2)N2CCCCC2)cc1` (stereo not given): the rescue activity (ATP increase) is inactive: 0.531%.

With `Cc1ccc(N(C(=O)C2CCC(=O)N2)C2(C(=O)NC3CCCCC3)CCCCC2)cc1` (stereo not given), the rescue activity (ATP increase) is inactive: -11.3%.

With `C[C@@H]1CN([C@@H](C)CO)C(=O)c2cc(NC(=O)Cc3ccccc3)ccc2O[C@@H](C)CCCCO[C@@H]1CN(C)S(=O)(=O)c1ccc(F)cc1`, the rescue activity (ATP increase) is inactive: -1.8%.

As for `COc1ccc(S(=O)(=O)Nc2ccc3c(c2)CC(=O)N([C@H](C)CO)C[C@H](C)[C@H](CN(C)Cc2ccc(Cl)c(Cl)c2)O3)cc1`, the rescue activity (ATP increase) was inactive: 15.9%.

Turning to `C[C@@H]1CN([C@@H](C)CO)C(=O)c2cc(C#CC3CCCC3)cnc2O[C@H]1CN(C)C(=O)Nc1ccccc1`, the rescue activity (ATP increase) is inactive: 22.4%.

For `C=CCOc1c(Br)cc(CNn2nnnc2N)cc1OC`, the rescue activity (ATP increase) was inactive: 29.5%.

On to `Cn1ncc(N=Cc2ccccc2O)c1C(=O)Nc1ccccc1`, for which the rescue activity (ATP increase) is inactive: -12.8%.

`c1cncc(Oc2cccc(Oc3cccnc3)c2)c1`: the rescue activity (ATP increase) was inactive: 13.7%.

For `CS(=O)(=O)N(CC(=O)N/N=C/c1cccs1)c1cccc(Cl)c1Cl`, the rescue activity (ATP increase) is inactive: 16.8%.

For the molecule `O=C(CSc1nc(-c2ccccc2)c(-c2ccccc2)o1)Nc1nncs1`, the rescue activity (ATP increase) is inactive: 5.06%.

For the molecule `COc1cccc(S(=O)(=O)N(C)C[C@H]2OCc3ccccc3-c3c(n(C)c4ccccc34)C(=O)N([C@@H](C)CO)C[C@H]2C)c1`, the rescue activity (ATP increase) was inactive: 18%.

For the molecule `C[C@@H]1CN([C@H](C)CO)C(=O)Cc2cc(NC(=O)C3CCCCC3)ccc2O[C@H]1CN(C)Cc1ccc(-c2ccccc2)cc1`, the rescue activity (ATP increase) is inactive: 34.9%.

`CCC(=O)Nc1c(C#N)c2nc3ccccc3nc2n1-c1ccccc1C`: the rescue activity (ATP increase) was inactive: 18.3%.

In the case of `COc1ccc(NC(=O)Nc2ccc3c(c2)C(=O)N([C@@H](C)CO)C[C@@H](C)[C@H](CN(C)Cc2ccc(C(F)(F)F)cc2)OCCCC[C@H](C)O3)cc1`, the rescue activity (ATP increase) is inactive: -26%.

Take `Cc1cccc(C)c1NS(=O)(=O)c1ccc(F)cc1`: the rescue activity (ATP increase) was inactive: -2.51%.

Consider `Cc1cccc(Nc2nnc(-c3ccc(C(=O)N4C[C@H]5C[C@H](C4)c4cccc(=O)n4C5)cc3)c3ccccc23)c1`, for which the rescue activity (ATP increase) is inactive: 8.28%.

As to `Cc1cc(C)n(C(=O)c2ccc(S(=O)(=O)NCC3CCCO3)cc2)n1` (stereo not given), the rescue activity (ATP increase) is inactive: 2.29%.

Take `Cc1ccc(C(=O)N2CCSCC2)cc1`: the rescue activity (ATP increase) was inactive: -3.87%.

Consider `O=C(OCC(=O)N1CCOCC1)c1ccccc1SCC(=O)N1CCCC1`, for which the rescue activity (ATP increase) is inactive: -12.9%.

For the molecule `CSc1cc(-c2ccc(Cl)cc2)c(C(=O)N2CCCC2)s1`, the rescue activity (ATP increase) was inactive: 17.3%.

Turning to `O=C(COC(=O)C1CC2C=CC1C2)NCc1ccco1` (stereo not given), the rescue activity (ATP increase) was inactive: -23.6%.

For the molecule `CC(C)(CSc1ncccn1)NS(=O)(=O)c1ccccc1`, the rescue activity (ATP increase) was inactive: -8.32%.

For `Cc1cc(Cl)c(S(=O)(=O)Nc2ccc3c(c2)OCO3)cc1OCC(N)=O`, the rescue activity (ATP increase) is inactive: 3.69%.

As for `O=c1cc(-c2ccncc2)oc2ccccc12`, the rescue activity (ATP increase) was inactive: 24.2%.

For the molecule `C[C@@H]1CN([C@H](C)CO)C(=O)c2cccc(NC(=O)Nc3ccc(F)cc3)c2O[C@H]1CN(C)Cc1ccccc1`, the rescue activity (ATP increase) is inactive: 1.81%.

On to `COc1cc(C(N)=O)ccc1OCc1ccccc1`, for which the rescue activity (ATP increase) is inactive: 8.22%.

For the molecule `C[C@@H]1CN([C@@H](C)CO)C(=O)Cc2cc(NC(=O)Cc3cn(C)c4ccccc34)ccc2O[C@H]1CN(C)Cc1ccc(C(F)(F)F)cc1`, the rescue activity (ATP increase) is inactive: 13.7%.

Consider `N=c1n(-c2ccccc2)c(O)cc(=O)n1-c1ccccc1`, for which the rescue activity (ATP increase) is inactive: -17.2%.

`O=C(Nc1cccs1)NC1CCCC1`: the rescue activity (ATP increase) is inactive: 0.116%.

As to `C[C@H](CO)N1C[C@H](C)[C@H](CN(C)S(=O)(=O)c2cccs2)Oc2ccc(NC(=O)Cc3cn(C)c4ccccc34)cc2C1=O`, the rescue activity (ATP increase) is inactive: -0.951%.

Regarding `C[C@H](CO)N1C[C@H](C)[C@@H](CN(C)C(=O)Nc2ccc(F)cc2)OCCCC[C@H](C)Oc2ccc(NC(=O)Cc3ccccc3)cc2C1=O`, the rescue activity (ATP increase) was inactive: 17.8%.

Consider `C[C@@H]1CN([C@H](C)CO)C(=O)Cc2cc(NS(=O)(=O)c3ccc(F)cc3)ccc2O[C@@H]1CN(C)Cc1ccc(Cl)c(Cl)c1`, for which the rescue activity (ATP increase) was inactive: 22.2%.

Turning to `CCCCCn1c(N2CCC(C(N)=O)CC2)nc2c1c(=O)[nH]c(=O)n2C`, the rescue activity (ATP increase) is inactive: 4.98%.

As to `C[C@@H]1CCCCO[C@H](CN(C)CC2CCCCC2)[C@@H](C)CN([C@H](C)CO)C(=O)c2cc(NS(=O)(=O)c3ccccc3)ccc2O1`, the rescue activity (ATP increase) was inactive: -18.2% [at 21 µM].

For `C[C@@H]1CN([C@@H](C)CO)C(=O)c2cc(NS(=O)(=O)c3ccc(Cl)cc3)ccc2O[C@@H](C)CCCCO[C@@H]1CN(C)C(=O)Nc1cccc2ccccc12`, the rescue activity (ATP increase) is inactive: 33.7%.

Regarding `C[C@@H]1CN([C@H](C)CO)C(=O)Cc2cc(NS(=O)(=O)c3cn(C)cn3)ccc2O[C@H]1CN(C)Cc1ccc(Cl)c(Cl)c1`, the rescue activity (ATP increase) was inactive: 12.2% [at 21 µM].

In the case of `CCOC(=O)c1cc(=O)n(Cc2ccccc2C)c2ccccc12`, the rescue activity (ATP increase) was inactive: 20.2%.

Regarding `Nn1c(SCC(=O)Nc2ccc(F)cc2F)nnc1-c1cccnc1`, the rescue activity (ATP increase) is inactive: -18.1%.

Regarding `C[C@@H](NC(=O)C[C@@H]1CC[C@@H]2[C@H](COC[C@H](O)CN2Cc2ccc(C(F)(F)F)cc2)O1)c1ccccc1`, the rescue activity (ATP increase) is inactive: 32%.

`COc1ccc2[nH]cc(C(=O)CNc3nc(C)cs3)c2c1`: the rescue activity (ATP increase) was inactive: 13.8%.

On to `CCOc1cccc(CNc2ccc(O)cc2)c1OCc1ccccc1Cl`, for which the rescue activity (ATP increase) is inactive: 48%.

Take `OCC[C@H]1C[C@@H](O)[C@H](O)[C@@]2(Cc3ccccc3O2)O1`: the rescue activity (ATP increase) is inactive: -43.1%.

`NC(=O)c1ncc(C(F)(F)F)cc1Oc1ccc(F)cc1`: the rescue activity (ATP increase) was inactive: -11.2%.

With `Cc1ccc(S(=O)(=O)N(C)Cc2ccc(-c3nnco3)cc2)cc1`, the rescue activity (ATP increase) is inactive: -11.4%.

Take `Cc1ccc(NS(=O)(=O)c2ccc(-n3cccn3)cc2)c(C)c1`: the rescue activity (ATP increase) is inactive: 39.9%.

On to `COc1ccc(-n2c(SCC(=O)N3CCCCC3)nc(O)cc2=O)cc1`, for which the rescue activity (ATP increase) was inactive: -3.25%.

For `COc1ccc(S(=O)(=O)Nc2ccc3c(c2)C(=O)N([C@@H](C)CO)C[C@H](C)[C@@H](CN(C)S(=O)(=O)c2cccs2)OCCCC[C@@H](C)O3)cc1`, the rescue activity (ATP increase) was inactive: 11.9%.

Turning to `CCCCCCCNC(=O)C1(CC2CC(c3ccc(Cl)cc3)=NO2)CCN(C(=O)OC(C)(C)C)CC1` (stereo not given), the rescue activity (ATP increase) was inactive: 19%.

As for `C[C@H](CO)N1C[C@H](C)[C@H](CN(C)S(=O)(=O)c2ccc(F)cc2)Oc2ncc(C#Cc3cccc(F)c3)cc2C1=O`, the rescue activity (ATP increase) was inactive: 7.8%.

Consider `Cc1ccccc1NC(=O)c1onc2c1CCCC2`, for which the rescue activity (ATP increase) is inactive: 19.9%.
